PubChem BioAssay AID493246 – Drosophila RNAi Screening Center | 2011

- Test: 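Genes fly cells need to grow and stay alive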 (primary screen)
- Cells: Drosophila Kc and S2R+ cells
- Knock-down reagent: long dsRNA against Drosophila genes
- Measured: 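Raw, unnormalised count of remaining cells in each well; per-plate z-scores of cell number underlie the calls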
- Direction: Kc cell number and S2R+ cell number: higher = more cells remaining
- Rule for the call: 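Active when the per-plate z-score of cell number is 3 or more in the direction of fewer cells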
The screen tested about 21,000 reagents; this is a random part of those that have a named target and a result. Over the whole deposit, 429 (2%) are marked active. 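Values are raw and not normalised between plates; calls rest on per-plate z-scores that were not deposited.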 The numbers tell different reagents against one gene apart. A plus sign joins genes that one reagent is predicted to hit. The record does not give: the amount of reagent, the time to read-out.

no.	target gene	dsRNA no.	Kc cell number, rep 1	Kc cell number, rep 2	S2R+ cell number, rep 1	S2R+ cell number, rep 2	activity call
1	CG4953	1	1.33e6	1.37e6	1.18e6	1.28e6	inactive
2	CG15071	1	1.61e6	1.62e6	1.17e6	1.32e6	inactive
3	CG13564	1	1.53e6	1.60e6	1.22e6	1.31e6	inactive
4	beat-IIIc	1	1.87e6	1.88e6	1.42e6	1.56e6	inactive
5	beat-IIIc	2	1.58e6	1.74e6	1.17e6	1.34e6	inactive
6	Rab21	1	1.65e6	1.77e6	1.11e6	1.23e6	inactive
7	CG31635	1	1.76e6	1.81e6	1.36e6	1.49e6	inactive
8	CG31635	2	1.63e6	1.85e6	1.01e6	1.18e6	inactive
9	Snx3	1	1.49e6	1.63e6	1.35e6	1.43e6	inactive
10	osi	1	1.63e6	1.80e6	1.18e6	1.31e6	inactive
11	CG30479	1	1.55e6	1.60e6	1.30e6	1.37e6	inactive
12	CG11635 + spaw	1	1.48e6	1.54e6	1.26e6	1.37e6	inactive
13	CG30411	1	1.47e6	1.55e6	9.87e5	1.06e6	inactive
14	PIG-L	1	1.47e6	1.44e6	1.08e6	1.20e6	inactive
15	RIOK2	1	1.41e6	1.45e6	1.03e6	1.14e6	inactive
16	CG32988	1	1.57e6	1.67e6	1.22e6	1.42e6	inactive
17	sif	1	1.54e6	1.47e6	1.02e6	1.20e6	inactive
18	sif	2	1.57e6	1.93e6	1.19e6	1.25e6	inactive
19	DopEcR	1	1.38e6	1.37e6	1.27e6	1.20e6	inactive
20	Jon25Bii	1	1.66e6	1.54e6	1.14e6	1.32e6	inactive
21	mRpL40	1	1.36e6	1.43e6	1.03e6	1.09e6	inactive
22	CG4553	1	1.65e6	1.91e6	1.07e6	1.12e6	inactive
23	Epp	1	1.58e6	1.60e6	1.22e6	1.26e6	inactive
24	CG34315 + Orc3	1	1.08e6	1.41e6	1.06e6	1.18e6	inactive
25	CG13875	1	1.41e6	1.37e6	9.44e5	1.11e6	inactive
26	CG30447	1	5.44e5		7.77e5		inactive
27	CG3520	1	1.57e6	1.70e6	1.23e6	1.32e6	inactive
28	SMC6	1	1.43e6	1.47e6	9.55e5	1.05e6	inactive
29	CG8927	1	1.16e6	1.27e6	1.12e6	1.22e6	inactive
30	RpS27A	1	1.42e6	1.48e6	9.21e5	1.06e6	inactive
31	Jhbp15	1	1.28e6	1.29e6	1.15e6	1.23e6	inactive
32	CG13083	1	1.52e6	1.61e6	1.32e6	3.51e5	inactive
33	nopo	1	1.40e6	1.38e6	1.17e6	1.26e6	inactive
34	nAChRalpha7	1	1.50e6	1.52e6	1.04e6	1.21e6	inactive
35	nAChRalpha7	2	1.50e6	1.54e6	1.11e6	1.14e6	inactive
36	Uhg2 + snoRNA:Me18S-G1620 + snoRNA:U14:30Ea	1	1.42e6	1.46e6	9.49e5	1.08e6	inactive
37	Spt6	1	4.55e5		6.34e5		inactive
38	CG4984 + CG4975	1	1.61e6	1.65e6	1.25e6	1.38e6	inactive
39	CG4984 + CG4975	2	1.34e6	1.40e6	1.17e6	1.18e6	inactive
40	CG30122	1	1.52e6	1.55e6	1.18e6	1.24e6	inactive
41	CG30122	2	1.67e6	1.70e6	1.26e6	1.33e6	inactive
42	CG11498	1	1.47e6	1.63e6	1.09e6	1.19e6	inactive
43	blw	1	8.15e5	8.58e5	8.76e5	1.10e6	active
44	TrpA1	1	1.32e6	1.25e6	1.13e6	1.11e6	inactive
45	CG11029	1	1.45e6	1.36e6	1.11e6	1.31e6	inactive
46	ksh	1	1.56e6	1.65e6	1.13e6	1.24e6	inactive
47	CG33514	1	1.35e6	1.31e6	1.05e6	1.20e6	inactive
48	CG33514	2	1.68e6	1.56e6	1.08e6	1.20e6	inactive
49	dob	1	5.55e5		7.74e5		inactive
50	Trxr2	1	1.78e6	1.92e6	1.38e6	1.48e6	inactive
51	CG15118	1	1.47e6	1.55e6	1.05e6	1.01e6	inactive
52	Sap47	1	1.61e6	1.69e6	1.26e6	1.42e6	inactive
53	Gga	1	5.37e5		9.38e5		inactive
54	CG9902	1	1.57e6	1.56e6	1.06e6	1.15e6	inactive
55	CG34430	1	1.52e6	1.61e6	1.22e6	1.35e6	inactive
56	Sec22	1	5.81e5		7.38e5		inactive
57	CD98hc	1	1.52e6	1.57e6	1.27e6	1.34e6	inactive
58	Ccp84Ac	1	1.36e6	1.55e6	1.23e6	1.28e6	inactive
59	CG14545	1	1.61e6	1.55e6	1.01e6	1.12e6	inactive
60	CG14770	1	1.48e6	1.45e6	1.01e6	1.14e6	inactive
61	Sems	1	1.44e6	1.88e6	1.29e6	1.33e6	inactive
62	CG5707	1	1.54e6	1.71e6	1.15e6	1.21e6	inactive
63	CG15890	1	1.42e6	1.45e6	1.10e6	1.12e6	inactive
64	MED23 + CG3700	1	1.45e6	1.56e6	1.36e6	1.47e6	inactive
65	MED23 + CG3700	2	1.21e6	1.31e6	1.14e6	1.16e6	inactive
66	RhoGAP71E	1	1.86e6	1.87e6	1.13e6	1.23e6	inactive
67	RhoGAP71E	2	1.67e6	1.80e6	9.93e5	1.11e6	inactive
68	RhoGAP71E	3	1.53e6	1.73e6	1.35e6	1.69e6	inactive
69	CG31459	1	1.43e6	1.41e6	9.98e5	1.11e6	inactive
70	thr	1	1.16e6	1.29e6	6.39e5	7.20e5	inactive
71	Tapdelta	1	1.29e6	1.42e6	8.85e5	9.91e5	inactive
72	GluProRS	1	1.45e6	1.49e6	1.13e6	1.20e6	inactive
73	ck	1	1.33e6	1.36e6	1.23e6	1.21e6	inactive
74	Tie	1	1.81e6	1.74e6	9.72e5	1.14e6	inactive
75	Tie	2	1.55e6	1.62e6	1.20e6	1.22e6	inactive

Single entries from above:
For “S2R+ cell number, rep 1”, MED23 + CG3700 #2 has 1.14e6
CG11029, Kc cell number, rep 2 = 1.36e6
Value of thr in “Kc cell number, rep 1”: 1.16e6
Value of Jon25Bii in “Kc cell number, rep 2”: 1.54e6
Result for CG30122 #2 in “activity call”: inactive
For “Kc cell number, rep 1”, CG15118 reads 1.47e6
